According to US20150285810A1:
No constants are given. Whether binding was seen depends on the method and setting. For some of these results: Binding seen in cells or lysates may run through a third protein. Some entries that bind do so weakly or less than the wild type. For some of these results: Tags and fused reporters may be left off the sequences shown.

T1: iASPP (625-828)-His (human) (UniProt Q8WUF5)
T1 sequence: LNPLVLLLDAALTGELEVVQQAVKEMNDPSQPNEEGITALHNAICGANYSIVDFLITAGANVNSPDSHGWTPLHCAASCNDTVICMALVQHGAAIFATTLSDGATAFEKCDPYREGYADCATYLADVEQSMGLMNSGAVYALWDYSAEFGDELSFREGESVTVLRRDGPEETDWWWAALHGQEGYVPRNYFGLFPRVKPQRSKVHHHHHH

T2: iASPP (inhibitory Apoptosis-Stimulating Protein of p53), fast-migrating, non-modified form (not phosphorylated at Ser84/Ser113) (human), Q8WUF5
T2 chain: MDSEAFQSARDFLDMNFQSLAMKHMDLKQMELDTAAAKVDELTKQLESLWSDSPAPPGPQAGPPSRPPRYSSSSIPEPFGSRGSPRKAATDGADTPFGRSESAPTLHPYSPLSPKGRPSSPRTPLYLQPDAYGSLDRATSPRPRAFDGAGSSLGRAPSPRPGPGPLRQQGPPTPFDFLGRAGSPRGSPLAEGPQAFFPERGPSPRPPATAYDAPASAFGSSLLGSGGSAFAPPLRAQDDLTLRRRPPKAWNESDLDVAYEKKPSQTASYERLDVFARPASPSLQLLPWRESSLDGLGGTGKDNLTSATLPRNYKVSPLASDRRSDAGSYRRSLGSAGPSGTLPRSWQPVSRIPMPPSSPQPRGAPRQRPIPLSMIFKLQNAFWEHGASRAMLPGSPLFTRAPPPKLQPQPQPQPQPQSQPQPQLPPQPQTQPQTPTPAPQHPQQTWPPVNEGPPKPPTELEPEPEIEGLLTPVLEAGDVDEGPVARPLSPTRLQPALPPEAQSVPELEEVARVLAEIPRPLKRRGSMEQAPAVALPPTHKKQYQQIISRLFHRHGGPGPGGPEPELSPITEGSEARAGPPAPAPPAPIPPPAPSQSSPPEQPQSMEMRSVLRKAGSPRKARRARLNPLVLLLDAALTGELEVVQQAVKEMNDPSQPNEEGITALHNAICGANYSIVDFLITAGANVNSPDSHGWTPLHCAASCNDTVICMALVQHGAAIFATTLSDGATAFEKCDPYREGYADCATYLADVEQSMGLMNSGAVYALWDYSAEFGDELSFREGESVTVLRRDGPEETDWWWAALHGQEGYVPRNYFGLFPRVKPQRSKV

T3: iASPP (1-240)-GST (human) (UniProt Q8WUF5)
T3 sequence: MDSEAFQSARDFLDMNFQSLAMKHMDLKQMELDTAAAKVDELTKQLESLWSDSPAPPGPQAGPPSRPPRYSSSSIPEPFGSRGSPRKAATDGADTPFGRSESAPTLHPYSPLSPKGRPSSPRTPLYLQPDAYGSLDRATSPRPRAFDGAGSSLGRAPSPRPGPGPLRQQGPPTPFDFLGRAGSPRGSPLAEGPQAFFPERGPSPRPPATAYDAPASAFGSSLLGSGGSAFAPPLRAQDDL


Key:
[1] = target: T1, iASPP (625-828)-His (human); assay: glutathione bead pull-down of purified proteins, anti-His blot
[2] = target: T2, iASPP (inhibitory Apoptosis-Stimulating …); assay: non-denaturing versus denaturing gel Western blot of H1299 lysates; settings: remark: other sources report otherwise
[3] = target: T3, iASPP (1-240)-GST (human); assay: in vitro translated iASPP(625-828)-V5 mutant pulled down with iASPP(1-240)-GST glutathione beads

Binder	binding [3]	other results
iASPP (1-240)-GST (protein, not shown: a dimerising Fc or GST) MDSEAFQSARDFLDMNFQSLAMKHMDLKQMELDTAAAKVDELTKQLESLWSDSPAPPGPQAGPPSRPPRYSSSSIPEPFGSRGSPRKAATDGADTPFGRSESAPTLHPYSPLSPKGRPSSPRTPLYLQPDAYGSLDRATSPRPRAFDGAGSSLGRAPSPRPGPGPLRQQGPPTPFDFLGRAGSPRGSPLAEGPQAFFPERGPSPRPPATAYDAPASAFGSSLLGSGGSAFAPPLRAQDDL	–	binding [1]: binds
iASPP (inhibitory Apoptosis-Stimulating Protein of p53), fast-migrating, non-modified form (not phosphorylated at Ser84/Ser113), Q8WUF5 1-828 (protein) MDSEAFQSARDFLDMNFQSLAMKHMDLKQMELDTAAAKVDELTKQLESLWSDSPAPPGPQAGPPSRPPRYSSSSIPEPFGSRGSPRKAATDGADTPFGRSESAPTLHPYSPLSPKGRPSSPRTPLYLQPDAYGSLDRATSPRPRAFDGAGSSLGRAPSPRPGPGPLRQQGPPTPFDFLGRAGSPRGSPLAEGPQAFFPERGPSPRPPATAYDAPASAFGSSLLGSGGSAFAPPLRAQDDLTLRRRPPKAWNESDLDVAYEKKPSQTASYERLDVFARPASPSLQLLPWRESSLDGLGGTGKDNLTSATLPRNYKVSPLASDRRSDAGSYRRSLGSAGPSGTLPRSWQPVSRIPMPPSSPQPRGAPRQRPIPLSMIFKLQNAFWEHGASRAMLPGSPLFTRAPPPKLQPQPQPQPQPQSQPQPQLPPQPQTQPQTPTPAPQHPQQTWPPVNEGPPKPPTELEPEPEIEGLLTPVLEAGDVDEGPVARPLSPTRLQPALPPEAQSVPELEEVARVLAEIPRPLKRRGSMEQAPAVALPPTHKKQYQQIISRLFHRHGGPGPGGPEPELSPITEGSEARAGPPAPAPPAPIPPPAPSQSSPPEQPQSMEMRSVLRKAGSPRKARRARLNPLVLLLDAALTGELEVVQQAVKEMNDPSQPNEEGITALHNAICGANYSIVDFLITAGANVNSPDSHGWTPLHCAASCNDTVICMALVQHGAAIFATTLSDGATAFEKCDPYREGYADCATYLADVEQSMGLMNSGAVYALWDYSAEFGDELSFREGESVTVLRRDGPEETDWWWAALHGQEGYVPRNYFGLFPRVKPQRSKV	–	binding [2]: binds
iASPP(625-828)/T724A/N813A (protein, not shown: small tags and cut ends) LNPLVLLLDAALTGELEVVQQAVKEMNDPSQPNEEGITALHNAICGANYSIVDFLITAGANVNSPDSHGWTPLHCAASCNDTVICMALVQHGAAIFATTASDGATAFEKCDPYREGYADCATYLADVEQSMGLMNSGAVYALWDYSAEFGDELSFREGESVTVLRRDGPEETDWWWAALHGQEGYVPRAYFGLFPRVKPQRSKV	binds	–
iASPP(625-828)/T724A/Y814A (protein, not shown: small tags and cut ends) LNPLVLLLDAALTGELEVVQQAVKEMNDPSQPNEEGITALHNAICGANYSIVDFLITAGANVNSPDSHGWTPLHCAASCNDTVICMALVQHGAAIFATTASDGATAFEKCDPYREGYADCATYLADVEQSMGLMNSGAVYALWDYSAEFGDELSFREGESVTVLRRDGPEETDWWWAALHGQEGYVPRNAFGLFPRVKPQRSKV	binds	–
